This experiment addresses Haemagglutinin (HA)-tagged STAT3 (UniProt P40763). Put plainly: association of tagged proteins co-expressed in HEK293T cells.

Amino acid sequences for entries named in this document (tags omitted). A change or cut given only in a name is not applied to a line headed by its entry.
UniProt P40763, whole entry: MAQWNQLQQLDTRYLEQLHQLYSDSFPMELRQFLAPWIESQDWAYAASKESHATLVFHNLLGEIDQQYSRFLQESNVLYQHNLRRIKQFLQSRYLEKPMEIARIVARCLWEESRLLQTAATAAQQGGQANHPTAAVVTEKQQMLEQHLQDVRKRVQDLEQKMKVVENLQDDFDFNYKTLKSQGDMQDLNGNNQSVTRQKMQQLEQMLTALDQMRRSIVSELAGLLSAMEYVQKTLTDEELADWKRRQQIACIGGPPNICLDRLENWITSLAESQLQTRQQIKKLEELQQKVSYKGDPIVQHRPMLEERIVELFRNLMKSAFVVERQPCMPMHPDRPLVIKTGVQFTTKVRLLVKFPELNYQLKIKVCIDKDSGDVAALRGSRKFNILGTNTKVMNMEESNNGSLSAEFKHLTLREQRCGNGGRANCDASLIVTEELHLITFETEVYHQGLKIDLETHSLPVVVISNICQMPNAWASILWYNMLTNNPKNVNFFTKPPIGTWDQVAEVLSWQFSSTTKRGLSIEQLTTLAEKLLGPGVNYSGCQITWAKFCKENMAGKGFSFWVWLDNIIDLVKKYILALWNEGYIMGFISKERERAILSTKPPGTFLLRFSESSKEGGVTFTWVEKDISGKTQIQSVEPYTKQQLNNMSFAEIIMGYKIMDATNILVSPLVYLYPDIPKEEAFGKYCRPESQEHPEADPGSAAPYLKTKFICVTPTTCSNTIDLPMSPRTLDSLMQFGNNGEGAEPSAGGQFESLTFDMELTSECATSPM

Results are given in words; binding and its absence hold for the method and conditions named. Some results given as binding are weak or reduced against the parent protein; the word gives no strength.

Take “APT2(C2S) (from UniProt Q9WTL7 1-231) (enzyme)”: the binding entry is listed as “binds”.
